Source: US20230174582A1 (ICHIMARU PHARCOS CO., LTD, priority 2020, published 2023)
Positions of bridges follow the written chain, without caps; N, C: chain ends. Non-standard residues stand in square brackets, D forms with d. *: point of attachment. Biotin = O=C1N[C@H]2[C@H](CS[C@H]2CCCCC(=O)*)N1; Nle = CCCC[C@H](N)C(=O)O; Dap = NC[C@H](N)C(=O)O

Assay: peptide made by a vendor (Fmoc solid-phase peptide synthesis; HATU/DIEA)
Conditions: whole synthesis

| Substance | purity (crude or final not stated) [%] |
| --- | --- |
| c(Mpa-NmeTyr-Leu-NmeGly-c(Cys)-Tyr-Leu-Cys)-Ser-Leu-Ile-NH2 | 96.87 |
| c(Mpa-NmeTyr-Leu-NmeGly-c(Cys)-Tyr-Leu-Cys)-Dap-Leu-Ile-NH2 | 95.3 |
| Ac-c(Cys-Pro-Pro-Tyr-NmeLeu-Pro-Dap-Tyr-Leu-Cys)-Dap-Leu-Ile-NH2 | 97.04 |
| Ac-c(Cys-Pro-Pro-Tyr-Leu-Pro-Dap-4AcF-Leu-Cys)-Dap-Leu-Ile-NH2 | 97.44 |
| Ac-CPPYLPRRLCTLLLRS-OH (disulfide 1-10; SMILES CC(=O)N[C@H]1CSSC[C@@H](C(=O)N[C@H](C(=O)N[C@@H](CC(C)C)C(=O)N[C@@H](CC(C)C)C(=O)N[C@@H](CC(C)C)C(=O)N[C@@H](CCCNC(=N)N)C(=O)N[C@@H](CO)C(=O)O)[C@@H](C)O)NC(=O)[C@H](CC(C)C)NC(=O)[C@H](CCCNC(=N)N)NC(=O)[C@H](CCCNC(=N)N)NC(=O)[C@@H]2CCCN2C(=O)[C@H](CC(C)C)NC(=O)[C@H](Cc2ccc(O)cc2)NC(=O)[C@@H]2CCCN2C(=O)[C@@H]2CCCN2C1=O) | 97.52 |
| Ac-c(Cys-Pro-Pro-4amF-Leu-Pro-Dap-Tyr-Leu-Cys)-Dap-Leu-Ile-NH2 | 95.32 |
| c(Mpa-NmeTyt-Leu-Pro-c[Lys-Tyr-Leu-Cys)-Asp]-Leu-Ile-NH2 | 98.04 |
| Biotin-CPPYLPRRLCTLLLRS-OH (disulfide 1-10) | 98.11 |
| Ac-c(Cys-Pro-Pro-4fF-Leu-Pro-Dap-Tyr-Leu-Cys)-Dap-Leu-Ile-NH2 | 98.74 |
| Ac-CPPYLP[Dap]YLC[Dap][Nle]I-NH2 (disulfide 1-10) | 99.91 |
| Ac-C(Cys-Pro-Pro-Tyr-Leu-Pro-Dap-Tyr-Leu-Cys)-Dap-Leu-aMdeLeu-NH2 | 95.46 |
| Ac-c(Cys-Pro-Pro-Tyr-leu-Pro-Dap-Tyr-Leu-Cys)-Dap-CbuA-Ile-NH2 | 99.79 |
| c(Mpa-NmeTyr-Lsu-Pro-c[Lys-Tyr-Leu-Cys)-Asp]-Leu-Ile-NH2 | 100 |
| Ac-C(Cys-Pro-Pro-Tyr-Leu-Pro-Dap-Tyr-Leu-Cys)-Dap-aMeLeu-Ile-NH2 | 98.8 |
| Ac-c(Cys-Pro-Pro-Tyr-Leu-Pro-Dap-4amideF-Leu-Cys)-Dap-Leu-Ile-NH2 | 99.22 |
| c(Mpa-Pro-Pro-Tyr-Leu-Pro-c[Lys-Tyr-Leu-Cys)-Asp]-Leu-Ile-NH2 | 95.85 |
| Ac-c(Cys-Pro-Pro-4amideF-Leu-Pro-Dap-Tyr-Leu-Cys)-Dap-Let-Ile-NH2 | 99.07 |
| c(M6a-Tyr-Leu-Pro-Dap-Tyr-Leu-hmC)-Dap-Leu-Ile-NH2 | 97.95 |
